pIC50: −log10 of the molar value. The structures given here were assigned with low confidence; some may be wrong.
Tests used:
PAR4 [1] = molecular target: T1, PAR4 (Homo sapiens (Human), UniProt Q96RI0); test: FLIPR assay in PAR4-expressing HEK293 cells (PAR4 antagonist activity, calcium mobilization); type: cell-based; conditions: read-out: PAR4 FLIPR Assay (IC50), FLIPR assay as described in Example A
PAR4 [2] = molecular target: T1, PAR4; test: Gamma thrombin induced platelet aggregation assay in PRP (PRP assay); type: cell-based; conditions: read-out: PAR4 PRP Assay (Gamma Thrombin, IC50)

Amino acid sequences for entries named in this document (tags omitted). Residues count along the entry.
UniProt Q96RI0, 18-385 limits assumed: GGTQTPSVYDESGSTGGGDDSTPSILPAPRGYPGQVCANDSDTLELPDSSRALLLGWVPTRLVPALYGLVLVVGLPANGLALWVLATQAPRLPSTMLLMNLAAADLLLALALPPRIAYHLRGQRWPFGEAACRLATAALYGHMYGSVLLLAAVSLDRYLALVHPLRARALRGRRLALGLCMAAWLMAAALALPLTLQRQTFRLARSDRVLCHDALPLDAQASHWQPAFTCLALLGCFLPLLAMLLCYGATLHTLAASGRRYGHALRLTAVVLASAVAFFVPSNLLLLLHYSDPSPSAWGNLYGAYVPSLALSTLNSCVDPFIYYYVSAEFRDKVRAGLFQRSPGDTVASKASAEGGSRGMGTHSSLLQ

COc1cc(OCc2cccc(OCc3ccccc3)c2)c2cc(-c3cn4nc(Cl)sc4n3)oc2c1 [Example 405]
pIC50 (PAR4 [1]): 8.60 | pIC50 (PAR4 [2]): 7.02

COc1cc(COc2cc(OC)cc3oc(-c4cn5nc(OC)sc5n4)cc23)cc(OCc2ccccc2)c1 [Example 404]
pIC50 (PAR4 [1]): 8.69

Source: US9862730B2, “Imidazothiadiazole derivatives as protease activated receptor 4 (PAR4) inhibitors for treating platelet aggregation” (BRISTOL-MYERS SQUIBB COMPANY, priority 2012, dated 2018)
